Data from patent publication US20070232575A1, “Treatment of Pulmonary Artery Hypertension with Dhea, Dheas, Dhea Analogs, or Dhea Derivatives” (priority 2004, published 2007).
For at least one compound, name, drawing or mass did not settle the structure.

Tested on: chronic hypoxic-pulmonary artery hypertension (CH-PAH)
Experiment: Mean pulmonary arterial pressure (PAP) in chronic hypoxic (CH-PAH) rat model
Type: in vivo
Conditions: 3 mg/kg, same intravascular protocol as for DHEA, CH-DHEA rats (so in the source)
Description: To study the mechanisms of PAH and its possible treatments, an animal model was utilized. The placement of rats in a hypobaric chamber for 7 to 21 days induced chronic hypoxia, resulting in CH-PAH, a useful model system for studying mammalian PAH.
The rat model experiments were performed as follows. Adult male Wistar rats (220-240 g) were randomized into five groups. […] Intravascular administration was performed via the catheter inserted in the right jugular vein.

C[C@]12CC[C@@H]3c4ccc(O)cc4CC[C@H]3[C@@H]1CC[C@@H]2O [estradiol]
effect on PAP, i.v. administration: did not reveal any effect
